± gives the standard deviation of the averaged measurements. Differences between knockout arms are mostly noise.
Test system: ZR-75-1
Experiment: relative cell number vs DMSO control (72 h) (% of DMSO); higher = less growth inhibition (more cells)
Experimental: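 QMAP-Seq: a pool of 5 breast cancer cell lines (ZR-75-1, SKBR3, HCC-38, MDA-MB-231, BT-20), each carrying 12 doxycycline-inducible Cas9 sgRNA perturbations (11 knockouts plus non-targeting sgNT), was treated with compounds for 72 h at four 10-fold doses (10 nM-10 uM or 1 nM-1 uM range). Barcodes were amplified and sequenced, and cell number was interpolated from 293T spike-in standard curves. The result is expressed as % of the median of DMSO wells. Two biological replicates.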

[1] = sgRNA knockout: sgATF3, 1000 nM
[2] = sgRNA knockout: sgATF3, 10000 nM
[3] = sgRNA knockout: sgATF4, 1000 nM
[4] = sgRNA knockout: sgATF4, 10000 nM
[5] = sgRNA knockout: sgATF6, 1000 nM
[6] = sgRNA knockout: sgATF6, 10000 nM
[7] = sgRNA knockout: sgATG7, 1000 nM
[8] = sgRNA knockout: sgATG7, 10000 nM
[9] = sgRNA knockout: sgERN1, 1000 nM
[10] = sgRNA knockout: sgERN1, 10000 nM
[11] = sgRNA knockout: sgHSF2, 1000 nM
[12] = sgRNA knockout: sgHSF2, 10000 nM
[13] = sgRNA knockout: sgNFE2L2, 10 nM
[14] = sgRNA knockout: sgNFE2L2, 100 nM
[15] = sgRNA knockout: sgNFE2L2, 1000 nM
[16] = sgRNA knockout: sgNFE2L2, 10000 nM
[17] = sgRNA knockout: sgSLC35F2, 10 nM
[18] = sgRNA knockout: sgSLC35F2, 100 nM
[19] = sgRNA knockout: sgSLC35F2, 1000 nM
[20] = sgRNA knockout: sgSLC35F2, 10000 nM
[21] = sgRNA knockout: sgXBP1, 1000 nM
[22] = sgRNA knockout: sgXBP1, 10000 nM

| Structure (SMILES) | relative cell number (sgRNA knockout: sgATF3, 10 nM) | relative cell number (sgRNA knockout: sgATF3, 100 nM) | relative cell number [1] | relative cell number [2] | relative cell number (sgRNA knockout: sgATF4, 10 nM) | relative cell number (sgRNA knockout: sgATF4, 100 nM) | relative cell number [3] | relative cell number [4] | relative cell number (sgRNA knockout: sgATF6, 10 nM) | relative cell number (sgRNA knockout: sgATF6, 100 nM) | relative cell number [5] | relative cell number [6] | relative cell number (sgRNA knockout: sgATG7, 10 nM) | relative cell number (sgRNA knockout: sgATG7, 100 nM) | relative cell number [7] | relative cell number [8] | relative cell number (sgRNA knockout: sgERN1, 10 nM) | relative cell number (sgRNA knockout: sgERN1, 100 nM) | relative cell number [9] | relative cell number [10] | relative cell number (sgRNA knockout: sgHSF2, 10 nM) | relative cell number (sgRNA knockout: sgHSF2, 100 nM) | relative cell number [11] | relative cell number [12] | relative cell number [13] | relative cell number [14] | relative cell number [15] | relative cell number [16] | relative cell number [17] | relative cell number [18] | relative cell number [19] | relative cell number [20] | relative cell number (sgRNA knockout: sgXBP1, 10 nM) | relative cell number (sgRNA knockout: sgXBP1, 100 nM) | relative cell number [21] | relative cell number [22] |
| --- | --- | --- | --- | --- | --- | --- | --- | --- | --- | --- | --- | --- | --- | --- | --- | --- | --- | --- | --- | --- | --- | --- | --- | --- | --- | --- | --- | --- | --- | --- | --- | --- | --- | --- | --- | --- |
| Nc1nc(Cl)nc2c1ncn2[C@@H]1O[C@H](CO)[C@@H](O)[C@@H]1F [Clofarabine] | 98.4 ± 37 | 67.7 ± 4 | 28.4 ± 10 | 46.7 ± 0.49 | 67.5 ± 19 | 61.4 ± 45 | 26.5 ± 3.2 | 33.4 ± 10 | 79.6 ± 14 | 75.6 ± 24 | 24.9 ± 18 | 23.5 ± 10 | 119 ± 3.6 | 59 ± 26 | 20.1 ± 3.3 | 26.9 ± 4.4 | 89.6 ± 3.7 | 54.5 ± 12 | 31.4 ± 1.9 | 34.2 ± 1.5 | 123 ± 5.8 | 57.3 ± 11 | 27.3 ± 6.1 | 27.9 ± 6.2 | 81.2 ± 20 | 65.5 ± 16 | 28 ± 2.3 | 26.9 ± 3.4 | 73.4 ± 0.85 | 65.8 ± 17 | 27.2 ± 1.3 | 32.9 ± 7.7 | 92.7 ± 6.9 | 56.6 ± 7.4 | 25.9 ± 5.5 | 26.8 ± 0.98 |
| CC(C)(C)c1nc(-c2cccc(NS(=O)(=O)c3c(F)cccc3F)c2F)c(-c2ccnc(N)n2)s1 [Dabrafenib] | 159 ± 16 | 103 ± 22 | 97.3 ± 15 | 104 ± 11 | 141 ± 26 | 97.9 ± 14 | 84.1 ± 7.6 | 83 ± 24 | 109 ± 4 | 146 ± 27 | 92.4 ± 51 | 77.4 ± 6.2 | 140 ± 20 | 117 ± 36 | 90.5 ± 13 | 106 ± 33 | 149 ± 54 | 117 ± 7.4 | 94.9 ± 25 | 76.3 ± 3 | 139 ± 22 | 123 ± 3 | 106 ± 5.7 | 109 ± 33 | 142 ± 19 | 101.4 ± 0.55 | 145 ± 6.3 | 96.5 ± 1.4 | 101 ± 40 | 135 ± 31 | 95 ± 45 | 110 ± 26 | 155 ± 14 | 101.2 ± 1 | 120 ± 20 | 102 ± 2 |
| COC(=O)/C=C/C(=O)OC [DimethylFumarate] | 97.2 ± 22 | 95.7 ± 15 | 93.3 ± 21 | 95.1 ± 39 | 112 ± 9.1 | 83.5 ± 6.2 | 99.1 ± 3.6 | 89.4 ± 18 | 97 ± 15 | 73.5 ± 37 | 122 ± 13 | 111 ± 4.6 | 101 ± 56 | 88.2 ± 6.7 | 107 ± 8.4 | 77.1 ± 7.3 | 79.1 ± 14 | 79.6 ± 14 | 115 ± 20 | 92 ± 3.4 | 97.6 ± 37 | 98.6 ± 1.8 | 97 ± 2.6 | 86.9 ± 13 | 109 ± 11 | 96.2 ± 5 | 115 ± 31 | 107 ± 7.1 | 64 ± 6.4 | 118 ± 59 | 122 ± 26 | 52.4 ± 47 | 86 ± 21 | 90.5 ± 15 | 105 ± 16 | 98.6 ± 3.7 |

— the supplement of paper PMC7661543
